The target of the assay is ATXN3 (human (endogenous in SH-SY5Y)) (UniProt P54252). Briefly: proximity ligation; Duolink kit (Olink Bioscience) in SH-SY5Y cells; nuclei counterstained with DAPI; ATXN3-depleted (siRNA) cells and non-specific Ab (IgG) as controls.

Protein sequences, listed by entry. Tags and fused reporters are not part of them.
UniProt P54252: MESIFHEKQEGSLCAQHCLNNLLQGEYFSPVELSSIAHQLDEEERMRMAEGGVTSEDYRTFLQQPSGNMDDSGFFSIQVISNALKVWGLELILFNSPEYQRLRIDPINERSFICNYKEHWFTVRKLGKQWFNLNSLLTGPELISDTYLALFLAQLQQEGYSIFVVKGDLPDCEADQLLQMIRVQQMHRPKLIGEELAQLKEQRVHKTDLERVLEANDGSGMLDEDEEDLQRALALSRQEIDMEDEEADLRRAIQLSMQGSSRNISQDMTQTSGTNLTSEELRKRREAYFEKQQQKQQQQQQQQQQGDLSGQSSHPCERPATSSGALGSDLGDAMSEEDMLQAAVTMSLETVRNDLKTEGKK

Results are given in words; binding and its absence hold for the method and conditions named. Binding seen in cells or lysates may run through a third protein. Some entries that bind do so weakly or less than the wild type.

Take “Polynucleotide Kinase 3'-Phosphatase (from UniProt Q96T60 1-521)”: the binding result was “binds”.
